Data: PMC6175992, “Telomeric Repeat-Binding Factor Homologs in Entamoeba histolytica: New Clues for Telomeric Research”
For at least one entry, the source does not settle the construct or the ends of the probe. At least one result comes from cells or an extract, where the contact may be indirect. Where a protein sequence is shown, tags need not be part of it.

Biological target: T1, EhTRF-like III (Entamoeba histolytica) (UniProt C4LSY4)
T1 sequence (looked up): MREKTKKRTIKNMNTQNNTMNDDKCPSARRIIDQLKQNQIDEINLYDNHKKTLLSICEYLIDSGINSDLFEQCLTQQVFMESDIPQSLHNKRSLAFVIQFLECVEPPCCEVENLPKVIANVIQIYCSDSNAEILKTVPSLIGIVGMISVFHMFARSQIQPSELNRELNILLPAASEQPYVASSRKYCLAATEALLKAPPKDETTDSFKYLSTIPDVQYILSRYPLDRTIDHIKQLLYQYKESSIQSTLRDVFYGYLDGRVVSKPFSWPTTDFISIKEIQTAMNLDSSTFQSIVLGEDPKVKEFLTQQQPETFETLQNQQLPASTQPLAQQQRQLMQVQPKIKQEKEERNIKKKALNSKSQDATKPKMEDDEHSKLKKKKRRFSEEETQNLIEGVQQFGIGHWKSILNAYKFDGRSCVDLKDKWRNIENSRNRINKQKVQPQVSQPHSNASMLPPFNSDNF
Experiment: EMSA supershift
Conditions: anti-EhTRF-like III antibody, complex III enriched on overexpression; 12 mM HEPES pH 7.9, 60 mM KCl, 5 mM MgCl2, 1 mM EDTA, 4 mM Tris-HCl, 5 mM DTT, 10% glycerol, 4 mM spermidine, 50 ng poly dI-dC; protein in an extract; residues 1-460; protein details: N-terminal Myc (pKT-3M); label: 32P

Does “GCTCTATTAGTATTTTAGTATTTTAGTATTTTAGTATT / CATCTAGAGCAATACTAAAATACTAAAATACTAAAATACTAA [EhTEL]” bind?
Result: binds
